Values from PubChem BioAssay AID1259280 (Sanger Institute, 2017)

- Test: 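Kinase knock-downs that kill colorectal cancer cells or add to anchor drugs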 (primary screen)
- System: human SNU407 colorectal cancer cells
- Reagent: siRNA pool against human genes
- Treatment: anchor drugs BYL719 at 1 µM, cetuximab at 5 µg/ml or trametinib at 10 nM, or DMSO vehicle alone; exposure time not given
- Read-out: 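Viability per well scaled to a non-targeting pool and averaged over replicates, with a robust z-score from controls and a synergy score per anchor drug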
- Reading the numbers: viability z-score, no drug and viability vs control, no drug: higher = more cells survive the knock-down; synergy with trametinib and synergy with BYL719 and synergy with cetuximab: higher = stronger synergy of knock-down with drug
- Hit rule: 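a knock-down counts as essential when its robust viability z-score without drug is below -3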
- Meaning of the calls: active = essential (knock-down alone kills cells); inactive = no change without drug
This is an unselected part of 794 reagents tested. 12 of them (1.5%) were called active. 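Calls cover knock-down without drug only; synergy scores stand apart, values above 0.15 being treated as synergy.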 Reagents against one gene are numbered here. Viability is capped at 1. Not given: the amount of reagent, the time to read-out.

gene knocked down | reagent no. | viability z-score, no drug | viability vs control, no drug (fraction of control) | synergy with trametinib | synergy with BYL719 | synergy with cetuximab | outcome
DYRK4 (GeneID 8798) | 1 | -0.555 | 0.889 | -0.0818 | 0.00505 | -0.0583 | inactive
TGFBR1 (GeneID 7046) | 1 | 0.901 | 1 | 0.128 | 0.0551 | -0.0879 | inactive
GRK1 (GeneID 6011) | 1 | -0.402 | 0.9 | -0.119 | -0.0601 | 0.00516 | inactive
MAP3K12 (GeneID 7786) | 1 | -0.139 | 0.921 | 0.0759 | -0.0795 | -0.0465 | inactive
ACVR2A (GeneID 92) | 1 | 0.859 | 0.997 | -0.0219 | -0.0336 | -0.0915 | inactive
MAP3K1 (GeneID 4214) | 1 | 0.901 | 1 | -0.114 | -0.0861 | -0.0296 | inactive
PRKAR1A (GeneID 5573) | 1 | 0.901 | 1 | -0.0134 | 0.101 | -0.00797 | inactive
DLG3 (GeneID 1741) | 1 | 0.901 | 1 | -0.00682 | 0.00731 | -0.0063 | inactive
MYH10 (GeneID 4628) | 1 | 0.0457 | 0.935 | 0.0562 | 0.0786 | 0.0726 | inactive
RPS6KB1 (GeneID 6198) | 1 | -0.632 | 0.883 | 0.0286 | 0.0989 | 0.0494 | inactive
PFKFB4 (GeneID 5210) | 1 | -1.68 | 0.803 | -0.0869 | -0.0901 | -0.171 | inactive
PFKL (GeneID 5211) | 1 | -0.123 | 0.922 | -0.13 | -0.111 | -0.0245 | inactive
MINK1 (GeneID 50488) | 1 | -0.727 | 0.876 | -0.0484 | 0.112 | 0.00262 | inactive
GNAS (GeneID 2778) | 1 | -1.6 | 0.809 | -0.101 | -0.027 | -0.00352 | inactive
THNSL1 (GeneID 79896) | 1 | 0.901 | 1 | -0.133 | 0.0167 | 0.0714 | inactive
MATK (GeneID 4145) | 1 | -0.637 | 0.882 | 0.0295 | 0.0352 | -0.131 | inactive
WEE1 (GeneID 7465) | 1 | -1.04 | 0.851 | 0.0945 | -0.0261 | 0.046 | inactive
CSNK1A1 (GeneID 1452) | 1 | -0.327 | 0.906 | 0.0946 | -0.0121 | -0.0372 | inactive
SGK3 (GeneID 23678) | 1 | 0.901 | 1 | -0.0823 | 0.00752 | -0.024 | inactive
CDK2 (GeneID 1017) | 1 | 0.826 | 0.994 | -0.0265 | -0.00627 | 0.013 | inactive
HK1 (GeneID 3098) | 1 | 0.901 | 1 | 0.0199 | 0.056 | -0.0265 | inactive
CAMK2N1 (GeneID 55450) | 1 | -0.232 | 0.913 | -0.00183 | 0.0407 | -0.0444 | inactive
CALM3 (GeneID 808) | 1 | -1.26 | 0.835 | -0.0971 | -0.000713 | -0.113 | inactive
ITK (GeneID 3702) | 1 | 0.901 | 1 | -0.102 | -0.177 | -0.0886 | inactive
FXN (GeneID 2395) | 1 | 0.227 | 0.949 | -0.0569 | 0.00385 | 0.0262 | inactive
DGKA (GeneID 1606) | 1 | 0.67 | 0.982 | 0.0101 | 0.0891 | 0.0492 | inactive
MAP3K20 (GeneID 51776) | 1 | 0.901 | 1 | -0.0723 | -0.0431 | -0.03 | inactive
CHKB (GeneID 1120) | 1 | 0.901 | 1 | 0.0659 | 0.0584 | -0.02 | inactive
MYO3A (GeneID 53904) | 1 | -1.07 | 0.85 | 0.00303 | -0.0154 | -0.0697 | inactive
NAGK (GeneID 55577) | 1 | -3.3 | 0.679 | -0.0663 | -0.159 | -0.207 | active
TCF12 (GeneID 6938) | 1 | -0.493 | 0.893 | -0.0617 | -0.0331 | 0.03 | inactive
CDK16 (GeneID 5127) | 1 | 0.0834 | 0.938 | -0.0706 | 0.0721 | 0.0098 | inactive
JAK3 (GeneID 3718) | 1 | 0.901 | 1 | -0.0356 | -0.00441 | -0.0886 | inactive
PIK3C2A (GeneID 5286) | 1 | -3.26 | 0.682 | -0.0672 | 0.00278 | 0.0382 | active
FGFRL1 (GeneID 53834) | 1 | 0.234 | 0.949 | -0.0652 | 0.0296 | 0.0513 | inactive
TAB1 (GeneID 10454) | 1 | 0.901 | 1 | -0.0207 | 0.0399 | 0.0199 | inactive
PSKH1 (GeneID 5681) | 1 | 0.425 | 0.964 | -0.0886 | 0.0817 | 0.114 | inactive
BMP2K (GeneID 55589) | 1 | 0.203 | 0.947 | -0.0142 | 0.0826 | -0.031 | inactive
PFKFB3 (GeneID 5209) | 1 | 0.353 | 0.958 | -0.135 | -0.0501 | -0.00845 | inactive
TYK2 (GeneID 7297) | 1 | 0.901 | 1 | -0.0906 | 0.0245 | 0.0642 | inactive
RIOK2 (GeneID 55781) | 1 | -0.972 | 0.857 | 0.0296 | 0.0759 | -0.0645 | inactive
PASK (GeneID 23178) | 1 | -0.407 | 0.9 | -0.0733 | -0.0639 | -0.0622 | inactive
PKLR (GeneID 5313) | 1 | 0.268 | 0.952 | -0.12 | 0.0397 | 0.0224 | inactive
PIK3R2 (GeneID 5296) | 1 | 0.24 | 0.95 | -0.117 | -0.084 | -0.0576 | inactive
PIK3C2G (GeneID 5288) | 1 | -1.39 | 0.825 | 0.0947 | 0.0468 | -0.0494 | inactive
MOS (GeneID 4342) | 1 | 0.357 | 0.958 | -0.0901 | -0.0737 | 0.0338 | inactive
NUAK1 (GeneID 9891) | 1 | -0.874 | 0.864 | -0.0498 | 0.135 | -0.0277 | inactive
CDKL5 (GeneID 6792) | 1 | 0.901 | 1 | -0.122 | 0.0191 | -0.0886 | inactive
ILK (GeneID 3611) | 1 | 0.901 | 1 | -0.0624 | -0.00881 | 0.0157 | inactive
ILK (GeneID 3611) | 2 | -0.137 | 0.921 | -0.0299 | 0.0389 | -0.015 | inactive
CHD9 (GeneID 80205) | 1 | 0.458 | 0.966 | -0.0661 | -0.011 | -0.0669 | inactive
TBCK (GeneID 93627) | 1 | 0.00452 | 0.932 | -0.0515 | -0.0093 | -0.0828 | inactive
N4BP2 (GeneID 55728) | 1 | 0.724 | 0.986 | -0.0855 | -0.0166 | 0.029 | inactive
RUNX1 (GeneID 861) | 1 | 0.46 | 0.966 | 0.0289 | 0.0276 | 0.125 | inactive
CDK11B (GeneID 984) | 1 | 0.901 | 1 | 0.00251 | -0.0582 | 0.0843 | inactive
KMT2B (GeneID 9757) | 1 | -0.681 | 0.879 | -0.0849 | -0.0459 | -0.0815 | inactive
AK4 (GeneID 205) | 1 | 0.901 | 1 | -0.0941 | 0.0177 | 0.0127 | inactive
MAP3K5 (GeneID 4217) | 1 | 0.821 | 0.994 | 0.0924 | 0.0723 | 0.0321 | inactive
GALK1 (GeneID 2584) | 1 | 0.156 | 0.943 | 0.0452 | -0.0264 | 0.0198 | inactive
GAK (GeneID 2580) | 1 | 0.901 | 1 | 0.0297 | 0.00985 | 0.0334 | inactive
CDK10 (GeneID 8558) | 1 | 0.476 | 0.968 | -0.0855 | 0.0162 | -0.109 | inactive
TGFBR2 (GeneID 7048) | 1 | 0.482 | 0.968 | 0.0832 | 0.102 | 0.0374 | inactive
CLK4 (GeneID 57396) | 1 | -2.37 | 0.75 | -0.156 | -0.0161 | -0.114 | inactive

No new results follow: 7 of the entries above.
gene knocked down | reagent no. | viability z-score, no drug | viability vs control, no drug (fraction of control) | synergy with trametinib | synergy with BYL719 | synergy with cetuximab | outcome
CDKL5 (GeneID 6792) | 1 | 0.901 | 1 | -0.122 | 0.0191 | -0.0886 | inactive
ILK (GeneID 3611) | 1 | 0.901 | 1 | -0.0624 | -0.00881 | 0.0157 | inactive
ILK (GeneID 3611) | 2 | -0.137 | 0.921 | -0.0299 | 0.0389 | -0.015 | inactive
CHD9 (GeneID 80205) | 1 | 0.458 | 0.966 | -0.0661 | -0.011 | -0.0669 | inactive
TBCK (GeneID 93627) | 1 | 0.00452 | 0.932 | -0.0515 | -0.0093 | -0.0828 | inactive
N4BP2 (GeneID 55728) | 1 | 0.724 | 0.986 | -0.0855 | -0.0166 | 0.029 | inactive
RUNX1 (GeneID 861) | 1 | 0.46 | 0.966 | 0.0289 | 0.0276 | 0.125 | inactive
